Results of single-concentration screens

Chains of the proteins cited; added tags and fusions are not shown. Residues count along the entry.
UniProt P9WFT3, whole entry: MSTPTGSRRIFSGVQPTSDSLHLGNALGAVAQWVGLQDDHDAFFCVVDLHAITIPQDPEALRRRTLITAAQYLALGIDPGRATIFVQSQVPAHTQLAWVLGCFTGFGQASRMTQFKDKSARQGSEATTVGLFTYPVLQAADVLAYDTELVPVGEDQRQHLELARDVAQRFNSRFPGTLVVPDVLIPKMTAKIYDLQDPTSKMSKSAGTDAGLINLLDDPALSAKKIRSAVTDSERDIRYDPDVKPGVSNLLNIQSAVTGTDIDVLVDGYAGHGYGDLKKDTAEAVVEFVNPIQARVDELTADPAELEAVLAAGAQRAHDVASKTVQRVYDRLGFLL
UniProt A4I591, 1-473: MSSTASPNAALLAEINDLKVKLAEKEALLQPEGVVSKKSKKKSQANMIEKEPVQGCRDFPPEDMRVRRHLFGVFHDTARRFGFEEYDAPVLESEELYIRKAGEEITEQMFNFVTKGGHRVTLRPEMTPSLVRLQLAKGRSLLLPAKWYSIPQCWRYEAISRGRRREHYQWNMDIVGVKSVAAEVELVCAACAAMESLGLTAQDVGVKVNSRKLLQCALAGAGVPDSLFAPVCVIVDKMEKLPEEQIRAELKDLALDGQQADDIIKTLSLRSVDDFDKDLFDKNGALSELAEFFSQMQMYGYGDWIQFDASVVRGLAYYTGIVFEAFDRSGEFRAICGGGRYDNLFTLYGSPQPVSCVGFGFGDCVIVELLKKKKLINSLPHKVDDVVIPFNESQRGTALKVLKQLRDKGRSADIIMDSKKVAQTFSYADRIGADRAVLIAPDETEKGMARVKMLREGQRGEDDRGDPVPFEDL

Source: ChEMBL document CHEMBL3988442, “University of Dundee, Small-Polar-MMV Screening Library” (2021).

Results are given as percent effect.
How 0% and 100% were set is not recorded. Most values in the screen are low, and negative values occur.
Compounds were drawn at random from those tested, without regard to their results.
A dash means the value is not listed here; it may have been measured.

MtTrpRS: 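Tryptophan-tRNA ligase, Mycobacterium tuberculosis (UniProt P9WFT3). Enzyme assay of tryptophanyl-tRNA synthetase; the read-out is not stated. Concentration: 10 µM. Higher most likely means stronger inhibition; the record gives no direction and few retests gave an IC50. Size under these conditions: about 65,000 compounds, about 64 of them at 50% or above in at least one test.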
LiHisRS: 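Enzyme assay of histidyl-tRNA synthetase; the read-out is not stated. Target: Histidine-tRNA ligase, Leishmania infantum (UniProt A4I591). Compounds at 30 µM. The record gives no direction; compounds that gave an IC50 in retests scored well above the rest, so higher reads as stronger inhibition. The assay is labelled LdHisRS but filed under L. infantum. Of about 69,000 compounds tested this way, about 410 (0.6%) reached 50% or more in at least one test.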

structure | MtTrpRS | LiHisRS
COc1cccc(N2CCN(C(=O)C(C)Oc3ccccc3)CC2=O)c1 (stereo not given) | 2.968% | 15.09%
C[C@H]1C[C@H]2CN(S(=O)(=O)c3ccc(F)cc3)CC[C@@H]2O1 | -6.831% | 1.923%
O=C1CC2(CCN(CC3CC3)C2)CN1c1ccc2c(c1)OCO2 (stereo not given) | -5.273% | 15.69%
O=C(CO)N1CCOC2(CCCN(c3ncc(F)cn3)C2)C1 (stereo not given) | -2.379% | 22%
O=C(c1cscn1)N1CC[C@H]2[C@@H]1CCC(=O)N2c1ccccc1 | -0.2274% | 7%
CN(CCN1CCOC1=O)CC(=O)Nc1cc(F)cc(F)c1 | -1.891% | 21.05%
COCCN1CCCC(c2nccnc2-c2cccc(Cl)c2)C1 (stereo not given) | 3.46% | 22.38%
CC(SCCC(=O)NC(N)=O)c1ccc(F)cc1F (stereo not given) | -3.3% | 14.29%
Cc1nc(C2CCN2c2ncccn2)cc(N(C)C)n1 (stereo not given) | -4.863% | 18.57%
CCc1ncc2c(n1)CN(CCCOc1ccc(C#N)cc1)CC2 | -1.687% | 36.51%
CN(C)CCN(Cc1cccc(F)c1)C(=O)c1ccn(C)c(=O)c1 | -1.633% | 7.08%
c1cncc(CN(Cc2ccsc2)Cc2ccc(C3CCCCO3)o2)c1 (stereo not given) | 0.5435% | 17.14%
CN(Cc1cnn(C)c1)C(=O)CN1CCCC(Cn2cncn2)C1 (stereo not given) | 85.42% | 11.54%
CCOCC(O)CN1CCN(C(=O)c2cccc(F)c2)CC1 (stereo not given) | -2.709% | 3.846%
CS(=O)(=O)NCC1CCCCN1C(=O)c1cccc(C(F)(F)F)c1 (stereo not given) | -3.008% | 9.821%
CC(=O)N1CCCN(C(=O)Cc2c(C)nc(C)[nH]c2=O)CC1 | -2.414% | -1.299%
NCCn1nc(C2CCN(Cc3ccc(Cl)c(Cl)c3)C2)c2nccnc21 (stereo not given) | 1.923% | -19.44%
CS(=O)(=O)N1CCOCC12CCN(c1nncs1)CC2 | 2.705% | 23.68%
Cc1ccsc1CN1CCCC(CNC(=O)c2ccc(N)nc2)C1 (stereo not given) | -1.273% | -3.333%
O=C(CCS(=O)(=O)C1CCCC1)N1CCCC(n2ccnc2)C1 (stereo not given) | 0.7802% | 10.96%
COC[C@@H]1CCC[C@]12CN(S(=O)(=O)c1cccs1)CCO2 | -0.2907% | 15.38%
N#Cc1cc(CSCCN2CCOCC2)ccc1F | -4.641% | 10.45%
O=C(NC1CCN(c2ccccc2OC(F)F)C1)c1c[nH]nn1 (stereo not given) | 1.909% | 6.122%
COCCc1nc(CSc2ccncc2)n(C)n1 | -2.821% | 16.42%
CNc1cnc(CC2COCCN(Cc3ccccc3)C2)cn1 (stereo not given) | -0.2114% | 11.43%
O=C(CCc1cn[nH]c1)N1CCC(C2CCN(c3ncccn3)CC2)C1 (stereo not given) | 3.302% | 12.5%
Cc1cccc(CN2C[C@@H]3CN(C(=O)c4ccco4)C[C@@H]3C2=O)n1 | -1.744% | 9.615%
CN(Cc1cc[nH]n1)C(=O)C1CC(=O)N(Cc2ccncc2)C1 (stereo not given) | 4.134% | 11.48%
Cc1nc(C)n(CC2CN(S(C)(=O)=O)Cc3nccn3C2)n1 (stereo not given) | 13.51% | 25%
COCC(=O)N1CC[C@]2(O)CCN(Cc3ccsc3)C[C@@H]2C1 | -1.359% | 7.692%
CN(C)C(CNC(=O)c1cccc(C(N)=O)c1)c1ccccc1Cl (stereo not given) | -1.004% | 17.7%
Cc1nn(C)c(C)c1CN(C)C(=O)c1cc(C(F)(F)F)n(C)n1 | -1.166% | 8.621%
c1ccc2oc(N3CCC(c4nncn4C4CC4)CC3)nc2c1 | -2.977% | -4.444%
Cc1cccc(CN2CCC(c3nnsc3S(C)(=O)=O)CC2)c1 | - | 24.74%
COc1cccc(CN(C(=O)NC2CC2)C2CCC(O)CC2)c1 (stereo not given) | 3.818% | 31.43%
Cc1cc(CNC(=O)COc2ccccc2F)c(C)o1 | -3.723% | 15.65%
Cn1cc(C(=O)N[C@@H]2CN(Cc3ccoc3)[C@@H]3CCCO[C@@H]32)cn1 | - | 2.703%
Cc1cc(C)nc(N2CCC(c3cncc(-n4ccnc4)n3)CC2)n1 | - | 13.04%
CN(C)S(=O)(=O)N1C[C@@H]2CC[C@H](C1)N(Cc1ccc3nsnc3c1)C2 | 9.668% | 20.19%
OCCNc1nccc(-c2c[nH]nc2-c2ccncc2)n1 | - | 17.14%
O=C(Cn1cc(Cl)cn1)N1CCNC1=O | 4.897% | 13.25%
COCCN1C[C@@H](c2ccccc2)[C@@]2(CCN(CC(=O)N(C)C)C2=O)C1 | -0.8721% | 5.769%
O=C1COC2(COCCN(c3cnccn3)C2)CN1c1cccc(F)c1 (stereo not given) | -6.296% | 22%
CC(NC(=O)c1cc2n(n1)CCCN(C(C)C)C2)c1cn2ccsc2n1 (stereo not given) | 3.086% | 26.67%
CC(=O)c1c(F)cccc1N1CCC(NS(=O)(=O)c2ccccc2)CC1 | 3.367% | 16.13%
CC(c1ccncc1)N1Cc2nc(N(C)C)ncc2C1=O (stereo not given) | 0.8602% | 19.47%
COc1cc(CNCC(O)c2ccc(F)c(F)c2)cc2c1OCO2 (stereo not given) | -3.596% | 15.38%
COc1cccc(N2CCN(Cc3ccc4[nH]ccc4c3)CC2=O)c1 | 6.163% | 44.94%
N#Cc1ccccc1C(=O)N1C[C@H]2CC[C@@H]1CN(Cc1ccccc1)C2 | -3.119% | 4.301%
CN(C)c1ccc(CN2CCN(c3ccc(C#N)cc3)C(=O)C2)cn1 | 0.6536% | 8.889%
Cc1ccc(-c2nc(CN3CCCC(Cn4cncn4)C3)cs2)o1 (stereo not given) | 0.8475% | 7.895%
CC(Cc1ccco1)NC(=O)Nc1cnn(CC(N)=O)c1 (stereo not given) | 1.267% | 10.81%
Cc1ccc(N(C)[C@@H]2CC[C@@H]3CN(C(=O)CC4CCOCC4)C[C@@H]32)nn1 | -3.513% | 12.77%
O=C(CNc1ccccc1S(=O)(=O)C(F)F)NCc1ccco1 | 4.204% | 17.95%
CC(Nc1ccc(CN2CCCC2=O)cc1)C(=O)N(C)CCC#N (stereo not given) | -2.542% | 17.54%
CCCn1nc2c(cc1=O)CN(Cc1ncc(C(C)(C)C)o1)CC2 | 0.6054% | 45.45%
CCC(C)n1cnc(S(=O)(=O)N(C)C)c1 (stereo not given) | 1.852% | 20%
COc1ccccc1OCC(=O)NS(=O)(=O)c1ccc(Br)s1 | -0.07337% | 12.5%
Cc1ccc(C)c2c(C)c(C(=O)NCCCn3ccnn3)[nH]c12 | -0.5863% | 16.81%
CCN1CCC(NC(=O)Cc2csc(C(C)(C)C)n2)CC1 | 4.955% | 11.11%
CC(C)c1cc(C(=O)NCc2nc(-c3ccc(F)cc3)n[nH]2)n[nH]1 | -2.037% | 18.33%
Fc1ccc(C(NCc2nnc(C3CC3)o2)C2CCC2)cc1 (stereo not given) | 1.751% | 15.79%
CN(C)CCN(Cc1cccc(C(F)(F)F)c1)C(=O)c1cc[nH]n1 | -7.014% | 2.885%
Cn1cnnc1S(=O)(=O)C1CCN(S(=O)(=O)c2ccccc2F)CC1 | 1.242% | 5.128%
Cn1cncc1CNC1CC2(CCN(S(C)(=O)=O)CC2)c2ccccc21 (stereo not given) | -2.05% | 10.34%
O=C1Nc2ccccc2NC12CCN(Cc1nnc(C3CC3)o1)CC2 | -4.182% | 31.31%
CC(C)(C)OC(=O)N1CCN(S(=O)(=O)CCCC#N)C2(CCCCC2)C1 | -1.359% | 25.27%
CN1CCC(NC(=O)c2cc(Cl)cc(Br)c2O)C1=O (stereo not given) | 2.12% | 15.29%
CC(=O)NCCNCC1(O)CCCN(CCC2CCCCC2)C1=O (stereo not given) | -2.681% | 12%
CN(C)c1nccc(CNC(=O)NC(C)(C)C)n1 | 6.282% | 13.33%
CC(C)c1noc([C@@H]2C[C@H](NS(=O)(=O)Cc3ccccc3)CN2C)n1 | -5.263% | 13.51%
O=C(CCn1cnc2ccccc21)N1CCN2CCCCC2C1 (stereo not given) | 5.528% | 3.571%
CC(CC(=O)NS(=O)(=O)c1ccc2c(c1)OCCO2)c1ccc(F)cc1 (stereo not given) | 3.462% | 1.887%
CCN(CC)C(=O)CN(C)C1CCc2ccccc21 (stereo not given) | -1.73% | 0.8%
Cn1ccnc1CN1CCOC(Cc2ccccc2)C1 (stereo not given) | -3.763% | 9.929%
COc1ccc(CNC(=O)NCC(=O)NC2CC2)c(C(F)(F)F)c1 | 1.434% | -3.54%
O=C(N1CCC(O)(C(F)(F)F)C1)C1(c2cccc(Cl)c2)CC1 (stereo not given) | 2.801% | 9.649%
Cc1ccc(NCc2cnc3n2CCN(c2ncccn2)CC3)nn1 | -6.08% | 13.89%
Cc1ccccc1C(=O)N1C[C@@H]2[C@@H](CN(C)CCc3ccccn3)[C@@H]2C1 | -2.348% | 21.28%

8 of the entries, repeated:

structure,MtTrpRS,LiHisRS
COc1cc(CNCC(O)c2ccc(F)c(F)c2)cc2c1OCO2 (stereo not given),-3.596%,15.38%
Cn1cncc1CNC1CC2(CCN(S(C)(=O)=O)CC2)c2ccccc21 (stereo not given),-2.05%,10.34%
CC(=O)NCCNCC1(O)CCCN(CCC2CCCCC2)C1=O (stereo not given),-2.681%,12%
c1cncc(CN(Cc2ccsc2)Cc2ccc(C3CCCCO3)o2)c1 (stereo not given),0.5435%,17.14%
Cc1cccc(CN2C[C@@H]3CN(C(=O)c4ccco4)C[C@@H]3C2=O)n1,-1.744%,9.615%
CC(SCCC(=O)NC(N)=O)c1ccc(F)cc1F (stereo not given),-3.3%,14.29%
COc1ccc(CNC(=O)NCC(=O)NC2CC2)c(C(F)(F)F)c1,1.434%,-3.54%
O=C(CCc1cn[nH]c1)N1CCC(C2CCN(c3ncccn3)CC2)C1 (stereo not given),3.302%,12.5%